Article PMC8326979
These are yes or no findings as the source states them, for the method shown. Binding seen in cells or lysates may run through a third protein. Some binding calls cover weakened binding; strength is not graded here.

By UniProt entry, the sequences of proteins in these tests, tags left out.
UniProt P08106: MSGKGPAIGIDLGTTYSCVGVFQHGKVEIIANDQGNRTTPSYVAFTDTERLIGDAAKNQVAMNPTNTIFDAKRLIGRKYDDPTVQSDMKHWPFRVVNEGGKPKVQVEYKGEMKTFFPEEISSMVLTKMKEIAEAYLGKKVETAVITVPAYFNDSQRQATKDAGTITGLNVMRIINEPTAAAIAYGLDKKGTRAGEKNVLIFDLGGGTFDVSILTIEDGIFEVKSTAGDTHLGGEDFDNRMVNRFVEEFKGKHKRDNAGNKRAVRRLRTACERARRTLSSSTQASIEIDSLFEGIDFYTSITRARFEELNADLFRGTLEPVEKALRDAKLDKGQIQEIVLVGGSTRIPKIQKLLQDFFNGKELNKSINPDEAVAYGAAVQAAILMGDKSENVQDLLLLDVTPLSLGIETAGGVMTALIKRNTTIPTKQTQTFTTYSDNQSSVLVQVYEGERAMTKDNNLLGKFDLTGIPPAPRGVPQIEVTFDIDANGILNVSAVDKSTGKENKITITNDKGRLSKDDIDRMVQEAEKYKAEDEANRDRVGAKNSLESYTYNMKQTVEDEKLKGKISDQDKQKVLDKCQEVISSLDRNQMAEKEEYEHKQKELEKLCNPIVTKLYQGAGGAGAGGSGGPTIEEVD
UniProt P51913: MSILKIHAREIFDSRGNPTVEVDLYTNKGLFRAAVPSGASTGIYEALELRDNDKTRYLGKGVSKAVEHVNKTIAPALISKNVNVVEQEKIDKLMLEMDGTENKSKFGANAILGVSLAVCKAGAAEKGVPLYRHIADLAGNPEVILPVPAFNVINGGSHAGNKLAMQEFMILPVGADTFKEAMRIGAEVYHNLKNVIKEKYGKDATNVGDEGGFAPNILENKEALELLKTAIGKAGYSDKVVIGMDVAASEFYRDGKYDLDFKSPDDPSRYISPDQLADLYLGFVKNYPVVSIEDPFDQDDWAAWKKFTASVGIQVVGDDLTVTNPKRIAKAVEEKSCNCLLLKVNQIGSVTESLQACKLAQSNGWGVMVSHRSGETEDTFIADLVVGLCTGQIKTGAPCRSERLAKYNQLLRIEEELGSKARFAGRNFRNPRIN

Target: 70-kDa heat shock protein (HSP70) (chicken (endogenous in chicken embryo hepatocytes)) (UniProt P08106)
Test: co-IP; anti-HSP70 antibody on protein A + G agarose beads, pre-cleared chicken hepatocyte lysate after heat treatment, rotated overnight at 4°C; Western blot; non-specific rabbit IgG as negative control

α-enolase (ENO1) (from UniProt P51913 1-434)
binding: binds
